Values from PubChem BioAssay AID1224830 (NIAID, 2016)
Purpose: 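Regulators of TLR4 signalling towards TNF-alpha in macrophage-like cells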 (primary screen). Cells: human THP-1 monocytic leukaemia cells, TNF dual-luciferase reporter clone, PMA-differentiated to macrophage-like cells. Reagent: siRNA pool against human genes, 50 nM. Time to read-out: LPS for 4 h, given about 3 days after siRNA transfection. Treatment: bacterial LPS (TLR4 ligand), 10 ng/ml. Detection: 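Ratio of firefly to renilla light, scaled to the plate median and expressed as a robust z-score per replicate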. Scale: TNF reporter robust z-score: higher = stronger TNF reporter response to LPS. Call rule: 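Each well counts as active if its z-score is over 2.8 or under -1.5; controls are left without a call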.
Here is a random part of about 18,000 reagents. In the full data, about 2,900 (16%) got an active call. 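Calls are made per well; low scores hint the gene aids the LPS response, high scores that it dampens it.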 Entries without a mark were called inactive. Repeated entries: four replicate wells of each siRNA pool. Reagent sequences are not shown.

target gene,TNF reporter robust z-score
IL6R,-1.4
IL6R,-1.33
IL6R,-1.52 (active)
IL6R,-1.15
LMOD3,2.26
LMOD3,3.07 (active)
LMOD3,2
LMOD3,2.57
CDC123,-0.63
CDC123,0.8
CDC123,0.36
CDC123,-0.25
PSAP,0.14
PSAP,-0.8
PSAP,-0.14
PSAP,-0.37
CDX4,0.02
CDX4,0.68
CDX4,0.49
CDX4,-1.62 (active)
CSF2RB,-0.63
CSF2RB,-0.53
CSF2RB,-0.52
RLIG1,1.19
RLIG1,1.22
RLIG1,1.13
RLIG1,1.56
LY6G5B,-0.29
LY6G5B,0.58
LY6G5B,1.57
LY6G5B,-0.02
SCG5,1.68
SCG5,1.3
SCG5,0.76
KRABD3,-0.73
KRABD3,-0.3
KRABD3,-0.07
KRABD3,-1.01
TMED2,-0.94
TMED2,0.15
TMED2,-0.6
TMED2,0.88
UGT1A9,-0.6
UGT1A9,-0.13
UGT1A9,-0.75
UGT1A9,0.03

Entries listed above marked active (3):
target gene,TNF reporter robust z-score
IL6R,-1.52 (active)
LMOD3,3.07 (active)
CDX4,-1.62 (active)
